Measured values from US20260116983A1.
Numbering of substitutions follows the chain as printed. Results are given in words; binding and its absence hold for the method and conditions named. Some entries that bind do so weakly or less than the wild type.

Sequences of proteins named here, by UniProt entry; tags and fusion partners are left off. Residues count along the entry.
UniProt Q03405, residues 23-305: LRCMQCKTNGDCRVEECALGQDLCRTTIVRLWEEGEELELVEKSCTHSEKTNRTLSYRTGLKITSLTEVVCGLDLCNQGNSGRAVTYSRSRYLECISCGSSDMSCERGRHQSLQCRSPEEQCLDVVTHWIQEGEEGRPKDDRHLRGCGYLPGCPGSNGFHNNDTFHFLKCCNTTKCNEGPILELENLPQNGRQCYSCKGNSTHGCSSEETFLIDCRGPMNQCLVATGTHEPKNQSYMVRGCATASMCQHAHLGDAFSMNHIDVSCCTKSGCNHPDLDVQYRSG

Assays:
[1] = biological target: T1, cynomolgus uPAR (recombinant) (cynomolgus monkey) (UniProt Q9GK78); experiment: ELISA on plate-coated cynomolgus uPAR, HRP anti-human IgG, O.D. A450nm
T1 sequence (looked up): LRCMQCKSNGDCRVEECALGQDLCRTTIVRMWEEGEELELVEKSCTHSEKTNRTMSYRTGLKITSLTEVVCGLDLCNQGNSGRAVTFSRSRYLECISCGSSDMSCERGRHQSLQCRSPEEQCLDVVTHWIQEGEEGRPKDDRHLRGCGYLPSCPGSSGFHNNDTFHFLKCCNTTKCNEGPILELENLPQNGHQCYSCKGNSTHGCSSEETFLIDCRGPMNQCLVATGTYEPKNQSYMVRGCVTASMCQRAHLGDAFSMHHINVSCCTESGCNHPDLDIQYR

[2] = biological target: recombinant soluble form of human uPAR (suPAR) (human) (UniProt Q03405); experiment: BLI, suPAR captured by 2G10 on the sensor, candidate antibody in solution [Cont.) B]
[3] = biological target: T1, cynomolgus uPAR (recombinant) (cynomolgus monkey); experiment: ELISA (FIG. 3A)
[4] = biological target: T1, cynomolgus uPAR (recombinant) (cynomolgus monkey); experiment: ELISA, plate-coated cyno uPAR
[5] = biological target: recombinant soluble form of human uPAR (suPAR) (human) (UniProt Q03405); experiment: BLI, candidate 1 loaded on the sensor, suPAR in solution [Cont.) C]
[6] = biological target: recombinant soluble form of human uPAR (suPAR) (human) (UniProt Q03405); experiment: BLI, suPAR captured by 2G10 on the sensor, 3159 in solution, before or after vitronectin
[7] = biological target: recombinant soluble form of human uPAR (suPAR) (human) (UniProt Q03405); experiment: BLI, candidate 1 loaded on the sensor, suPAR, then candidate 2 in solution [Cont.) C]
[8] = biological target: human uPAR displayed on the surface of MDA-MB-231 cells (human) (UniProt Q03405); experiment: flow cytometry on MDA-MB-231 (high uPAR) and MCF-7 (low uPAR) cells
[9] = biological target: T1, cynomolgus uPAR (recombinant) (cynomolgus monkey); experiment: ELISA on plate-coated cynomolgus uPAR, HRP anti-human IgG, O.D. A450nm [Cont.]

Measured: binding

B1: Antibody 8163 (antibody, human IgG1, V domains shown)
VH: EVQLVESGGGLVQPGESLTLSCDSNEFDFPSHDMSWVRKTPEKRLELVAAIDSDGGLTYYSNSRERRFIISRDNTKNTLYLQMRSLRSEDTALYYCARRRASYWYFDVWGTGTTVTVSS
VL: DILLTQSPAILPVSPGERVSFSCRASQNIGTSIHWYQQRTNGSPRLLIKYASESISGIPSRFSGSGSGTDFTLSINGVESEDIGDYYCQQSNSWPTFGGGTKLEIK
binds: [1] | [2] | [3] | [4] | [5]

B2: Antibody 3159 (antibody, human IgG1, V domains shown)
VH: QVTLKESGPGILQSSLTLSLTCSLSGFSLSTSGMGVSWIRQPSGKGLEWLAHIYWDDDKRYNPSLKTRLTISKDASRDQVFLKIISVDTADTGTYYCGRRVRNYFSGTSYWYFDVWGTGTTVTVSS
VL: DVLMTQTPLSLSVSLGDQASISCRSSQNILHRTGNTYLEWYLQKPGQSPKLLIYKVSNRFSGVPDRFSGSGSGTDFTLKISRLEAEDLGVYYCFQGSYVPFTFGSGTKLEMK
binds: [6] | [1] | [7] | [2] | [3] | [4]

B3: 11857 HC1 + LC2 (humanized) (antibody, V domains shown)
VH: EVQLVQSGAEVKKPGATVKISCKVSGYTFTDYYMNWVQQAPGKSLEWMGNINPNNGGTDYNQKFQGRVTITADKSTSTAYMELSSLRSEDTAVYYCARSYGSRFPYWGLGTLVTVSS
VL: DIQMTQSPSSLSASVGDRVTITCRASQDITNYLSWYQQKPGGTVKLLIFYTAVLQSGFPSRFSGSGSGADFTLTISSLQPEDVATYYCQQGHTLPWTFGGGTKVEIK
binds: [8]

B4: 11857 HC1 + LC3 (humanized) (antibody, V domains shown)
VH: B3 VH
VL: B3 VL with Y36F, F49Y, V83F
binds: [8]

B5: 11857 HC2 + LC2 (humanized) (antibody, V domains shown)
VH: B3 VH with T17S, I20V, V24A, Q38R, N61S, A72V, K74T, T76A
VL: B3 VL
binds: [8]

B6: Antibody 11857 (antibody, human IgG1, V domains shown)
VH: EVQLRQSGPELVKPGASVKISCKASGYTFTDYYMNWVKQSHEKSLEWIGNINPNNGGTDYNQKFKGKATLTVDKSSSTAYMELRSLTSEDSAVYYCARSYGSRFPYWGLGTLVTVSA
VL: DIQMTQTTSSLSASLGDRVTISCRASQDITNYLSWYQQKPDGTVKLLIFYTAVLQSGFPLRFSGSGSGADYSLTISNLEQEDFATYFCQQGHTLPWTFGGGTKLEIK
binds: [1] | [2] | [3] | [4]

B7: Antibody 3595 (antibody, human IgG1, V domains shown)
VH: B6 VH
VL: B6 VL with A52S, V53F, F58V
binds: [3] | [4] | [9]
